# Measured values as given in paper PMC7862700.
# By UniProt entry, the sequences of proteins in these tests, tags left out. Where a name states a change or a piece, a line headed by the entry shows the natural chain unless it says otherwise.
# UniProt P32519: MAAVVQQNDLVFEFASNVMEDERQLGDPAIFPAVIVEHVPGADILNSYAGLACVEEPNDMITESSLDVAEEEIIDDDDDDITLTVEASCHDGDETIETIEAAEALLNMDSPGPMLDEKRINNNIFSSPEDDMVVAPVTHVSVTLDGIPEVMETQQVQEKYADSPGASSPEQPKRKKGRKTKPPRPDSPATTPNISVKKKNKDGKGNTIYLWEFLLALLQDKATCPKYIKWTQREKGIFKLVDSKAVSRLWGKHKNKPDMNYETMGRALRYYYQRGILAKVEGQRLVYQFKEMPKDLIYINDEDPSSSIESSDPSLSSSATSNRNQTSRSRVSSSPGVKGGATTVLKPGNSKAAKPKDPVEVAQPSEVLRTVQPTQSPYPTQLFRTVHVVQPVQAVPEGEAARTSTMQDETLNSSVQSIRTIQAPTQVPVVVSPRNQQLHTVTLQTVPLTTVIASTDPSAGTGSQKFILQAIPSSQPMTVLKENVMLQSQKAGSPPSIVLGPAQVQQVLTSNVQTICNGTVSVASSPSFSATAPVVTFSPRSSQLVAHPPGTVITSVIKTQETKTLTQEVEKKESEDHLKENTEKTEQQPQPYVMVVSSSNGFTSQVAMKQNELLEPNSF
# UniProt P50549: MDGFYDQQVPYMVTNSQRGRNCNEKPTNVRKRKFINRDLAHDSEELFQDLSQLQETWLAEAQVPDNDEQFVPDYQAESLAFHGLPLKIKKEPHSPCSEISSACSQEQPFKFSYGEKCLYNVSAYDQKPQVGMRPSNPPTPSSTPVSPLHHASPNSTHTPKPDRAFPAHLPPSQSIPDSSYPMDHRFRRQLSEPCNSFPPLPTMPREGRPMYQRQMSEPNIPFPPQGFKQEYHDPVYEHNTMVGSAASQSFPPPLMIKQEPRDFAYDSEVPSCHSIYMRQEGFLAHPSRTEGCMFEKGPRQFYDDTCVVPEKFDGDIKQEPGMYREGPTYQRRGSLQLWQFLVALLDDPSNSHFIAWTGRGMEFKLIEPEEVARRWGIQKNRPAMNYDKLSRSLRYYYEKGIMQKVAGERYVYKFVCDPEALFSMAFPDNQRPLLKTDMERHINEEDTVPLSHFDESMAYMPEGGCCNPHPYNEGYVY
# The entries are a selection whose mix differs from that of the whole data set. For some assays here: At the low end of the ranking, values are background and their order means little. The list shows a part of the results. For some assays here: The exact form of the protein is not confirmed.
# Key:
# Test in all cases: DAPPL (digital affinity profiling via proximity ligation, sequencing)
# Settings in all cases: 10 mM Tris-HCl pH 7.5, 50 mM NaCl, 1 mM DTT, 4% glycerol, room temperature, 30 min; GST-TFs on glutathione beads, 16-mer random dsDNA library, 0.1% …; high values mean tight binding; double strand, one strand shown; scale: fold enrichment (6-mer frequency, TF over GST control)
# ERG = target: T1, ERG (UniProt P11308)
# T1 sequence: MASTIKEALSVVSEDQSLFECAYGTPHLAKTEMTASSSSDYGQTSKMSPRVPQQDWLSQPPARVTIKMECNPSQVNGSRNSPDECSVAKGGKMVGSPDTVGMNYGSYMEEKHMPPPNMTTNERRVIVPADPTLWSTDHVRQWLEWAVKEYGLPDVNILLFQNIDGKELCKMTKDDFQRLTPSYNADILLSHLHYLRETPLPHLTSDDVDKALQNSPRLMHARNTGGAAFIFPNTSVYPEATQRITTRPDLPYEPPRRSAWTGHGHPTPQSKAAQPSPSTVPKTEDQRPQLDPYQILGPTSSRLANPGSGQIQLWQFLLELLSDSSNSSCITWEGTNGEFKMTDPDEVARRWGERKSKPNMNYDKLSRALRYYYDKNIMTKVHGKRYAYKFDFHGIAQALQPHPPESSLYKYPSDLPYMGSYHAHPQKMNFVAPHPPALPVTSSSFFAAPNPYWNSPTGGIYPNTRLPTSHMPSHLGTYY
# ELF1 = ELF1 (UniProt P32519)
# ELK4 = target: T2, ELK4 (UniProt P28324-2)
# T2 sequence: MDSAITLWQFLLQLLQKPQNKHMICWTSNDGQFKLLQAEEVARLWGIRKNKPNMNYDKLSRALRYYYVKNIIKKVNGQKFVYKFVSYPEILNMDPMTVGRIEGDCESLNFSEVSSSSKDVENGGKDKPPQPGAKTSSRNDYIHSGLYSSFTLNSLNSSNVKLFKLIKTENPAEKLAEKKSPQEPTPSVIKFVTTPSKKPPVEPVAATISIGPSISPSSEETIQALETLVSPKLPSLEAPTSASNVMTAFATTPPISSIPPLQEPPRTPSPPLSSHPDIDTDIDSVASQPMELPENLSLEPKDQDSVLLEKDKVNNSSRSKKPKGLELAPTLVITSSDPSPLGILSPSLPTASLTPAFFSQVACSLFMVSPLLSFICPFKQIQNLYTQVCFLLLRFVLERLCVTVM
# ETV4 = target: T3, ETV4 (UniProt P43268)
# T3 sequence: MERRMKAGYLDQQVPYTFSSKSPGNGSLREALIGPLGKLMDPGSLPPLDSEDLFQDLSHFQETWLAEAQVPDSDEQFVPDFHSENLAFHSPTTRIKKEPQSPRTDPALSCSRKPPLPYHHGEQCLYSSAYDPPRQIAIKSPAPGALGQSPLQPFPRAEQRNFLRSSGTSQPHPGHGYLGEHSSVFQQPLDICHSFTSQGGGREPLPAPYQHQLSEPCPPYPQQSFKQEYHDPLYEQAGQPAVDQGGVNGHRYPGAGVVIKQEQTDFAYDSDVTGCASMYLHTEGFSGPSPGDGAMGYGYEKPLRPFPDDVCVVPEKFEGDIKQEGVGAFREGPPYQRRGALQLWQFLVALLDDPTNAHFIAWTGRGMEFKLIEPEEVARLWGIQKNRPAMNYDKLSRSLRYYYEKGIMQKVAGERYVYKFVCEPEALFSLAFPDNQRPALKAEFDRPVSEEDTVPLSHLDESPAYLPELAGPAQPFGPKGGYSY
# ETV1 = ETV1 (UniProt P50549)
# ERF = target: T4, ERF (UniProt P50548)
# T4 sequence: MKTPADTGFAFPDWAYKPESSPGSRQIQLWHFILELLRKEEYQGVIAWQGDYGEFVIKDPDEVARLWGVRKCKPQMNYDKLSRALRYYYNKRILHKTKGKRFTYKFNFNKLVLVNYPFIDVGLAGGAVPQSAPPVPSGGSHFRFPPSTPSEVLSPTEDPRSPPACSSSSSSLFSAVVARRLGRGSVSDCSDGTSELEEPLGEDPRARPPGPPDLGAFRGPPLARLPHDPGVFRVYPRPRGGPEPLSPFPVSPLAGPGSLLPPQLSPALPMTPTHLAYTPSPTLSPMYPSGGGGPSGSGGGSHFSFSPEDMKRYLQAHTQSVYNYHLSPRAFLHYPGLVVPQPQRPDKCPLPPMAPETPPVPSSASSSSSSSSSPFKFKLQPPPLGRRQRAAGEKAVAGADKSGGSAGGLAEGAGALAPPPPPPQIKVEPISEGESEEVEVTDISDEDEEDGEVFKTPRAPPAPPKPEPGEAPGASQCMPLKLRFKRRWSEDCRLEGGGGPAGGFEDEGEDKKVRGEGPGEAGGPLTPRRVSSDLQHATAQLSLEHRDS
Sequence,binding signal (ERG),binding signal (ELF1),binding signal (ELK4),binding signal (ETV4),binding signal (ETV1),binding signal (ERF)
TGGCGG,0.748,0.779,0.725,0.85,0.821,0.756
TAGTCG,0.444,0.462,0.483,0.459,0.46,0.467
CGGGAG,0.227,0.187,0.169,0.195,0.206,0.202
CGAGTG,0.792,0.883,0.948,0.772,0.889,0.843
GAGATA,0.643,0.65,0.649,0.601,0.647,0.718
TGAGGG,0.658,0.618,0.718,0.633,0.639,0.759
GAGTCC,0.418,0.375,0.405,0.398,0.412,0.431
CAGACG,0.482,0.476,0.511,0.462,0.51,0.504
GAGTTC,0.697,0.721,0.741,0.731,0.807,0.676
GTCGGC,0.386,0.369,0.365,0.396,0.354,0.388
GCCGGC,0.8,0.75,0.825,0.844,0.855,0.757
CGTGTG,0.409,0.424,0.462,0.427,0.465,0.434
GGAGAA,0.33,0.346,0.337,0.306,0.335,0.376
GCGCAG,0.822,0.819,0.911,0.855,0.812,0.848
GGGAGG,0.34,0.301,0.328,0.308,0.355,0.307
GGGACG,0.502,0.498,0.442,0.459,0.486,0.556
CGCAGG,0.847,0.812,0.912,0.971,0.917,0.852
CGGGTT,0.863,0.897,0.764,0.872,0.88,0.817
CAGCGA,0.908,0.906,0.926,0.868,0.872,0.828
GTACCG,0.753,0.736,0.729,0.777,0.823,0.638

Sequence,binding signal (ERG),binding signal (ELF1),binding signal (ELK4),binding signal (ETV4),binding signal (ETV1),binding signal (ERF)
GGGGAA,0.723,0.678,0.658,0.728,0.781,0.737
GAGGTG,0.487,0.499,0.491,0.467,0.507,0.465
GTAGTA,0.901,0.882,0.853,0.905,0.935,0.818
GTGACG,0.691,0.689,0.608,0.701,0.639,0.625
GACGCT,0.83,0.826,0.787,0.765,0.749,0.825
AGTCCG,0.631,0.55,0.619,0.568,0.542,0.518
GAACGA,0.673,0.823,0.715,0.739,0.778,0.791
ACGTGC,0.634,0.671,0.765,0.728,0.762,0.769
GGCCAC,0.937,,0.949,1.04,0.994,0.935
AGTCGA,0.442,0.398,0.369,0.381,0.444,0.459
GACCCG,0.881,0.865,0.799,0.889,0.854,0.842
GGTCGT,0.616,0.585,0.615,0.572,0.603,0.593
GTAAGA,0.83,0.792,0.856,0.798,0.797,0.83
CCAGTG,0.45,0.478,0.431,0.485,0.419,0.475
GAGTAT,0.592,0.607,0.586,0.512,0.576,0.689
GCGCGG,0.836,0.828,0.905,0.857,0.835,0.773
AGTGGA,0.818,0.76,0.883,0.742,0.766,0.714
GCGTAA,0.895,0.935,0.944,0.841,0.863,0.878
GCGGGT,0.576,0.662,0.602,0.571,0.604,0.595
GGACCC,0.814,0.864,0.838,0.917,0.849,0.821

Sequence,binding signal (ERG),binding signal (ELF1),binding signal (ELK4),binding signal (ETV4),binding signal (ETV1),binding signal (ERF)
CGGACA,0.832,0.803,0.666,0.805,0.826,0.758
CGTGTC,0.781,0.758,0.774,0.781,0.75,0.683
GAGGAT,0.556,0.562,0.532,0.569,0.597,0.598
GGGACT,0.692,0.673,0.645,0.709,0.686,0.651
GGCGTC,0.849,0.813,0.79,0.803,0.868,0.787
AGACGC,0.691,0.713,0.726,0.726,0.697,0.717
GGACCA,0.748,0.803,0.672,0.792,0.701,0.752
GTGAAT,0.842,0.806,0.852,0.761,0.845,0.766
GGGTAC,0.883,0.97,0.957,0.951,0.91,0.981
TCGGGC,0.505,0.522,0.503,0.502,0.512,0.501
GACCGT,0.461,0.477,0.464,0.423,0.459,0.43
CCAGTT,0.702,0.631,0.615,0.621,0.614,0.628
TCGGCA,0.667,0.675,0.782,0.745,0.759,0.729
CGAGAC,0.582,0.592,0.611,0.624,0.544,0.566
AGGACT,0.888,1,0.951,0.999,0.86,0.861
GTAGAG,0.602,0.573,0.618,0.607,0.525,0.615
TCAGGT,0.802,0.833,0.883,0.816,0.888,0.854
CAAGTC,0.847,0.871,0.957,0.842,0.827,0.767
CCAGGC,0.466,0.413,0.413,0.426,0.462,0.431
CGCGGA,0.95,0.915,0.846,0.845,0.929,0.884

# A different layout for part of the listing above:
Sequence	binding signal (ERG)	binding signal (ELF1)	binding signal (ELK4)	binding signal (ETV4)	binding signal (ETV1)	binding signal (ERF)
TGGCGG	0.748	0.779	0.725	0.85	0.821	0.756
TAGTCG	0.444	0.462	0.483	0.459	0.46	0.467
CGGGAG	0.227	0.187	0.169	0.195	0.206	0.202
